Data from PubChem BioAssay AID256 (DTP/NCI, 2004).
The list shows only some results of the screen, not a fair sample: it is rich in T/C values a quarter to a half above the control, in often repeated tests (any T/C) and in doses without a T/C. Other doses and runs of a compound stand elsewhere. T/C is the treated group as % of the vehicle group. Some entries give survivors of the animals treated and no T/C: the source holds a T/C of zero for them, seemingly a mark for toxic or unscored doses. Some survivor counts are full or nearly so, which does not show that the dose was tolerated: survival well below the control is almost never listed, so the zero probably covers shortened survival too. Counts of survivors are from the toxicity check (mostly the fifth day) where no day follows; animals may have died later. Schedules are NCI's codes, taken here to give the interval after Q, in days (D) or hours (H), and the number of doses after X. Some doses were run more than once; their values stand side by side, smallest first. For survival time, the PubChem record calls one and a half times the control and up active, and a quarter to a half above the control has no call in these data; cut-offs in other NCI protocols can differ. Some T/C values carry the count of animals alive at the toxicity check (mostly the fifth day); without a count, all were alive then.

Test system: CD2F1 mice, L1210 leukemia ip, survival T/C
Experiment: NCI In Vivo Anticancer Drug Screen. Data for tumor model L1210 Leukemia (intraperitoneal) in CD2F1 (CDF1) mice
Details: higher T/C = longer survival
Outline: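 Tumor-bearing mice (transplanted tumor) were split into treated and vehicle control groups, and the measured endpoint of each treated group was divided by that of its vehicle controls.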

[1] = T/C endpoint: mean survival time, dose: 400.0 mg/kg/injection, schedule: Q01DX001 (ip), vehicle: saline with Tween-80
[2] = T/C endpoint: mean survival time, dose: 400.0 mg/kg/injection, schedule: Q01DX001 (ip), vehicle: saline
[3] = T/C endpoint: mean survival time, dose: 200.0 mg/kg/injection, schedule: Q01DX009 (ip), vehicle: saline with Tween-80
[4] = T/C endpoint: mean survival time, dose: 400.0 mg/kg/injection, schedule: Q01DX009 (ip), vehicle: saline with Tween-80
[5] = T/C endpoint: mean survival time, dose: 200.0 mg/kg/injection, schedule: Q04DX003 (ip), vehicle: saline
[6] = T/C endpoint: mean survival time, dose: 100.0 mg/kg/injection, schedule: Q01DX009 (ip), vehicle: saline with Tween-80

O=C1CCC2(CCCCC2)N1
survivor count (T/C endpoint: mean survival time, dose: 5.0 mg/kg/injection, schedule: Q01DX009 (ip), vehicle: saline): 6 of 6
survivor count (T/C endpoint: mean survival time, dose: 10.0 mg/kg/injection, schedule: Q01DX009 (ip), vehicle: saline): 6 of 6
survivor count (T/C endpoint: mean survival time, dose: 20.0 mg/kg/injection, schedule: Q01DX009 (ip), vehicle: saline): 1 of 6
survivor count (T/C endpoint: mean survival time, dose: 25.0 mg/kg/injection, schedule: Q01DX009 (ip), vehicle: saline): 0 of 6
survivor count (T/C endpoint: mean survival time, dose: 50.0 mg/kg/injection, schedule: Q01DX009 (ip), vehicle: saline): 0 of 6

CN(C)CCNC(=O)c1ccc(N)cc1
survivor count (T/C endpoint: mean survival time, dose: 400.0 mg/kg/injection, schedule: Q04DX002 (ip), vehicle: saline): 3 of 3

CN(C)c1ccc(N=Nc2cccnc2)cc1
survivor count [1]: 1 of 3

Nc1ccc(-c2ccc(C(=O)O)cc2)cc1
survivor count [1]: 0 of 3 and 0 of 6
survivor count (T/C endpoint: mean survival time, dose: 400.0 mg/kg/injection, schedule: Q04DX002 (ip), vehicle: saline with Tween-80): 0 of 3

CCCCCC[C@H]([C@H](C)O)n1cnc2c(N)ncnc21
survivor count (T/C endpoint: mean survival time, dose: 150.0 mg/kg/injection, schedule: Q03HX024 (ip), vehicle: saline with Tween-80): 6 of 6
survivor count (T/C endpoint: mean survival time, dose: 200.0 mg/kg/injection, schedule: Q01DX009 (ip), vehicle: Klucel (hydroxypropylcellulose) (HPC)): 1 of 6
survivor count (T/C endpoint: median survival time, dose: 200.0 mg/kg/injection, schedule: Q01DX009 (ip), vehicle: Klucel (hydroxypropylcellulose) (HPC)): 2 of 6

CC1=C2C(=CC(C)(CO)C2O)C(O)C(C)(O)C12CC2 (configuration not stated)
survivor count (T/C endpoint: mean survival time, dose: 25.0 mg/kg/injection, schedule: Q01DX005 (ip), vehicle: water): 3 of 3
survivor count (T/C endpoint: mean survival time, dose: 50.0 mg/kg/injection, schedule: Q01DX005 (ip), vehicle: water): 1 of 3
survivor count (T/C endpoint: mean survival time, dose: 100.0 mg/kg/injection, schedule: Q01DX005 (ip), vehicle: water): 0 of 3
survivor count (T/C endpoint: mean survival time, dose: 200.0 mg/kg/injection, schedule: Q01DX005 (ip), vehicle: water): 0 of 3
survivor count (T/C endpoint: mean survival time, dose: 400.0 mg/kg/injection, schedule: Q01DX005 (ip), vehicle: water): 0 of 3

N#C[Se-].c1ccc([Te+](c2ccccc2)c2ccccc2)cc1
survivor count (T/C endpoint: median survival time, dose: 25.0 mg/kg/injection, schedule: Q01DX009 (ip), vehicle: Klucel (hydroxypropylcellulose) (HPC)): 0 of 6

O=c1[nH]cnc2c1CN(c1ccccc1)C2
survivor count (T/C endpoint: mean survival time, dose: 300.0 mg/kg/injection, schedule: Q01DX001 (ip), vehicle: saline): 0 of 6

CCOC(=O)c1ccc(NN=NCCF)cc1
T/C (T/C endpoint: median survival time, dose: 12.5 mg/kg/injection, schedule: Q01DX009 (ip), vehicle: distilled water + Tween-80): 133 % of control [5 of 6 alive]
survivor count (T/C endpoint: median survival time, dose: 50.0 mg/kg/injection, schedule: Q01DX009 (ip), vehicle: distilled water + Tween-80): 1 of 6 and 3 of 6

CCc1cccc([N+](=O)[O-])c1CC
survivor count (T/C endpoint: mean survival time, dose: 200.0 mg/kg/injection, schedule: Q04DX003 (ip), vehicle: saline with Tween-80): 6 of 6
survivor count (T/C endpoint: mean survival time, dose: 400.0 mg/kg/injection, schedule: Q04DX003 (ip), vehicle: saline with Tween-80): 0 of 6

COC(=O)c1cc(-c2ccc(Cl)cc2)nc2cc(Cl)c(OC)cc12
survivor count [2]: 6 of 6

Nc1nc(N)c2nc(CN(CCO)c3ccc(C(=O)NC(CCC(=O)O)C(=O)O)cc3)cnc2n1 (configuration not stated)
T/C (T/C endpoint: mean survival time, dose: 1.0 mg/kg/injection, schedule: Q01DX009 (ip), vehicle: Klucel (hydroxypropylcellulose) (HPC)): 144 % of control

O=C1C(=O)c2ccccc2C(O)=C1[N+](=O)[O-]
survivor count [3]: 3 of 6
survivor count [4]: 2 of 6

Cc1nc2c(n1C)C(=O)c1ccccc1C2=O
survivor count [5]: 3 of 6
survivor count (T/C endpoint: mean survival time, dose: 400.0 mg/kg/injection, schedule: Q04DX003 (ip), vehicle: saline): 0 of 6

Cn1ncc2c1C(=O)c1nc(-c3ccccc3)c(-c3ccccc3)nc1C2=O
survivor count [5]: 6 of 6

CN(C)N=Nc1ccc(C(N)=O)cc1
T/C (T/C endpoint: mean survival time, dose: 37.5 mg/kg/injection, schedule: Q01DX009 (ip), vehicle: Klucel (hydroxypropylcellulose) (HPC)): 136 % of control
T/C (T/C endpoint: mean survival time, dose: 75.0 mg/kg/injection, schedule: Q01DX009 (ip), vehicle: Klucel (hydroxypropylcellulose) (HPC)): 142 % of control
survivor count (T/C endpoint: mean survival time, dose: 300.0 mg/kg/injection, schedule: Q01DX009 (ip), vehicle: Klucel (hydroxypropylcellulose) (HPC)): 4 of 6
T/C (T/C endpoint: median survival time, dose: 50.0 mg/kg/injection, schedule: Q01DX005 (ip), vehicle: saline with Tween-80): 128 % of control
T/C (T/C endpoint: median survival time, dose: 60.0 mg/kg/injection, schedule: Q01DX005 (ip), vehicle: saline with Tween-80): 134 % of control
T/C (T/C endpoint: median survival time, dose: 60.0 mg/kg/injection, schedule: Q01DX009 (ip), vehicle: saline with Tween-80): 138 % of control
T/C (T/C endpoint: median survival time, dose: 100.0 mg/kg/injection, schedule: Q01DX005 (ip), vehicle: saline with Tween-80): 125, 138, 141 % of control
T/C (T/C endpoint: median survival time, dose: 167.0 mg/kg/injection, schedule: Q01DX005 (ip), vehicle: saline with Tween-80): 132 % of control
survivor count (T/C endpoint: median survival time, dose: 200.0 mg/kg/injection, schedule: Q01DX005 (ip), vehicle: saline with Tween-80): 4 of 6
T/C (T/C endpoint: median survival time, dose: 278.0 mg/kg/injection, schedule: Q01DX005 (ip), vehicle: saline with Tween-80): 134 % of control

CCC(Cc1ccccc1)C1=NC(C)(C)CC(C)O1 (configuration not stated)
survivor count [1]: 0 of 6

CCNC(=S)NN
survivor count (T/C endpoint: mean survival time, dose: 25.0 mg/kg/injection, schedule: Q01DX009 (ip), vehicle: saline with Tween-80): 0 of 3
survivor count (T/C endpoint: mean survival time, dose: 50.0 mg/kg/injection, schedule: Q01DX009 (ip), vehicle: saline with Tween-80): 1 of 3
survivor count [6]: 0 of 3
survivor count [3]: 0 of 3

C1CCC2C[N-]CCC2C1.C1CCC2C[N-]CCC2C1.C1CCC2C[N-]CCC2C1.C1CCC2C[N-]CCC2C1.[Cl][Rh][Cl] (configuration not stated)
survivor count (T/C endpoint: mean survival time, dose: 4.0 mg/kg/injection, schedule: Q01DX009 (ip), vehicle: saline with Tween-80): 3 of 6
survivor count (T/C endpoint: mean survival time, dose: 8.0 mg/kg/injection, schedule: Q01DX009 (ip), vehicle: saline with Tween-80): 3 of 6

O=S(=O)(O)c1ccc(-c2ccc(S(=O)(=O)O)cc2)cc1 (tested in a mixture with another compound)
T/C (T/C endpoint: mean survival time, dose: 6.3 mg/kg/injection, schedule: Q01DX009 (ip), vehicle: saline): 128 % of control
T/C (T/C endpoint: mean survival time, dose: 12.5 mg/kg/injection, schedule: Q01DX009 (ip), vehicle: saline, evaluated on day 30): 144 % of control
T/C (T/C endpoint: mean survival time, dose: 12.5 mg/kg/injection, schedule: Q01DX009 (ip), vehicle: saline, evaluated on day 60): 141 % of control
T/C (T/C endpoint: mean survival time, dose: 12.5 mg/kg/injection, schedule: Q04DX003 (ip), vehicle: saline, evaluated on day 30): 128 % of control
T/C (T/C endpoint: mean survival time, dose: 12.5 mg/kg/injection, schedule: Q04DX003 (ip), vehicle: saline, evaluated on day 60): 130 % of control
T/C (T/C endpoint: mean survival time, dose: 25.0 mg/kg/injection, schedule: Q01DX001 (ip), vehicle: saline, evaluated on day 30): 126 and 128 % of control
T/C (T/C endpoint: mean survival time, dose: 25.0 mg/kg/injection, schedule: Q01DX001 (ip), vehicle: saline, evaluated on day 60): 134 % of control
T/C (T/C endpoint: mean survival time, dose: 25.0 mg/kg/injection, schedule: Q04DX003 (ip), vehicle: saline, evaluated on day 30): 130 and 143 % of control
T/C (T/C endpoint: mean survival time, dose: 25.0 mg/kg/injection, schedule: Q04DX003 (ip), vehicle: saline, evaluated on day 60): 145 % of control
T/C (T/C endpoint: mean survival time, dose: 50.0 mg/kg/injection, schedule: Q01DX001 (ip), vehicle: saline): 138 and 140 % of control
T/C (T/C endpoint: mean survival time, dose: 100.0 mg/kg/injection, schedule: Q01DX001 (ip), vehicle: saline, evaluated on day 30): 143, 164, 237 % of control
T/C (T/C endpoint: mean survival time, dose: 100.0 mg/kg/injection, schedule: Q01DX001 (ip), vehicle: saline, evaluated on day 60): 188 % of control
survivor count (T/C endpoint: mean survival time, dose: 100.0 mg/kg/injection, schedule: Q01DX009 (ip), vehicle: saline): 6 of 6
T/C (T/C endpoint: mean survival time, dose: 200.0 mg/kg/injection, schedule: Q01DX001 (ip), vehicle: saline, evaluated on day 30): 205, 213, 313 % of control
T/C (T/C endpoint: mean survival time, dose: 200.0 mg/kg/injection, schedule: Q01DX001 (ip), vehicle: saline, evaluated on day 60): 492 % of control
survivor count (T/C endpoint: mean survival time, dose: 200.0 mg/kg/injection, schedule: Q01DX009 (ip), vehicle: saline): 0 of 6, 5 of 8, 4 of 6
survivor count [5]: 6 of 6 and 8 of 8
survivor count [2]: 0 of 6 and 0 of 8

O=S(=O)(N=N/C=C1\C=CC=CN1O)c1cccs1
survivor count [4]: 3 of 6

c1ccc(COC2CN3CCC2CC3)cc1 (configuration not stated)
survivor count [6]: 3 of 6
